Drawing on paper PMC3743775, this text covers binding for one sequence.

Sequences of proteins named here, by UniProt entry; tags and fusion partners are left off. Residues count along the entry.
UniProt Q8TDQ0, residues 22-301: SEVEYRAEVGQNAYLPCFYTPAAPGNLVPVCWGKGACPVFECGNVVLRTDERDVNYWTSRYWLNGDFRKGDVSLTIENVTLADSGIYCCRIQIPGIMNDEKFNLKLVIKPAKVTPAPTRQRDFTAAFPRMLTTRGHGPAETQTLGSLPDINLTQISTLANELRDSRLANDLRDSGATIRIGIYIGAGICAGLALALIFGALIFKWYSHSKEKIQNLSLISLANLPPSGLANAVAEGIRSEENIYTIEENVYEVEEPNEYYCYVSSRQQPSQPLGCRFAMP

No constants are given. Whether binding was seen depends on the method and setting. Binding seen in cells or lysates may run through a third protein. Some entries that bind do so weakly or less than the wild type.

Assay [1] has as its target galectin-9 (Gal-9) (human (endogenous in primary CD14+ M/MØ)) (UniProt O00182). In words: co-IP; as above, repeated with 30 mM α-lactose added to the M/MØ cell lysates before the co-ip to inhibit random binding of Gal-9 to Tim-3.
Assay [2] has the same target. The experiment in a line: co-IP; lysates of 1 x 10^7 purified human M/MØ, stimulated with or without 1 µg/ml LPS and 2.5 µg/ml R848 for 6 h; precipitated with anti-Gal-9 (or IgG) and Protein A/G PLUS-agarose at 4 °C, blot probed with anti-Tim-3.

For the sequence “T cell immunoglobulin mucin domain-3 (Tim-3) (from UniProt Q8TDQ0 22-301) (receptor)”, the binding entry in assay [1] and in assay [2] was “binds” each time.
